Patent US20250171550A1 (NINGBO T MAXIMUM BIOPHARMACEUTICALS, published 2025)
No constants are given. Whether binding was seen depends on the method and setting. Some binding calls cover weakened binding; strength is not graded here.

Amino acid sequences for entries named in this document (tags omitted).
UniProt Q02223: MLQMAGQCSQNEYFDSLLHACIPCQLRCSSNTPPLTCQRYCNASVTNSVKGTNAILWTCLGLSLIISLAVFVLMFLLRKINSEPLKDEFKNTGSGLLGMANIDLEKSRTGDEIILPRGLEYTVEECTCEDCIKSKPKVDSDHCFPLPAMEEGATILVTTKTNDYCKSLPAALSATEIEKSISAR

B1: C6 (Fc fusion)
VHH-Fc fusion chain: QVQLVESGGGLVETGSSLRLSCKSSGHSFSDYSLAWFRQAPGKEREFVAAITWSDVPRDDAVTYYRVDVKGRFTISRDNAKNTVYLQMNSLKPEDTAVYYCAVDASLVMTLTPRYWGQGTQVTVSS
notes: also called single-domain antibody C6
B2: C2 (Fc fusion)
VHH-Fc fusion chain: QVQLVESGGGLVQAGGSLRLSCVASGLTFSNYAMGWFRQGPGKDRDFVAAITRSDERQNDGVTYYRVSVKGRFTISRDNANDTVYLQMNSLKPEDTAIYYCAADPSLVFSPTLRYWGQGTLVTVSS
notes: also called single-domain antibody C2
B3: D10 (Fc fusion)
VHH-Fc fusion chain: QVQLVESGGGLVQPGGSLRLSCAASGFSLNNYVIGWFRQAPGKDRDFVAAITRSDERQNDGVTYYRVSVKGRFTISRDNANDTVYLQMNSLKPEDTAIYYCAADPSLVFSPTPRYWGQGTLVTVSS
notes: also called single-domain antibody D10
B4: single-domain antibody 48-11 (Fc fusion)
chain: QVQLVESGGGLVQAGGSLRLSCAASGHTPSNYAMGWFRQTPGKEREFVAAITWSAVTRDDAIPYYRTSVKGRFTISRDNAKNTVYLQMNSLKPEDTAVYYCAVDASLVMTPTPRYWGQGTQVTVSS
notes: Supernatant was used in flow cytometry, Protein A purified material in Biacore; not shown: human IgG1 Fc, ligated in series to the VHH (vector Lenti-hIgG1-Fc2)
B5: single-domain antibody D1 (Fc fusion)
chain: QVQLVESGGGLVQAGGSLRLSCVASGRTSTTSVMGWFRQAPGKERRFVAAITRTDDRQNDGITYYGESVKGRFTISRDNDKNTVYLQMNSLKPEDTAVYYCAAHTSLVFTPDPRYWGQGTPVTVPS
notes: not shown: human IgG1 Fc, ligated in series to the VHH (vector Lenti-hIgG1-Fc2)

Columns and labels:
[1] = biological target: BCMA on the CHO-K1-BCMA recombinant cell strain (UniProt Q02223); assay: flow cytometry on CHO-K1-BCMA cells, VHH-hIgG1 Fc in 293F supernatant, PE-labeled anti-human IgG, SSC-A against R-PE-A
[2] = biological target: BCMA on the CHO-K1-BCMA recombinant cell strain (UniProt Q02223); assay: flow cytometry on CHO-K1-BCMA cells, PE-labeled anti-human IgG

| Binder | binding [1] | binding [2] |
| --- | --- | --- |
| B1 | binds |  |
| B2 | binds |  |
| B3 | binds |  |
| B4 |  | binds |
| B5 |  | binds |
